According to the supplement of paper PMC11098740:
Where a name gives a salt, the structure may show the parent alone. The list shows a part of the results. Many values rest on one well or one pass, so single values are uncertain.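 Test system: a mixed pool of 41 HAP1 clones in which 61 cancer-associated proteins carry fluorescent tags inserted into introns, and each clone is identified from its image pattern. Read-outs are compared with DMSO-treated control wells. The BRD4 degrader dBET6 served as the positive control.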

The chains behind the UniProt entries cited, without tags or fusion partners.
UniProt O14980, whole entry: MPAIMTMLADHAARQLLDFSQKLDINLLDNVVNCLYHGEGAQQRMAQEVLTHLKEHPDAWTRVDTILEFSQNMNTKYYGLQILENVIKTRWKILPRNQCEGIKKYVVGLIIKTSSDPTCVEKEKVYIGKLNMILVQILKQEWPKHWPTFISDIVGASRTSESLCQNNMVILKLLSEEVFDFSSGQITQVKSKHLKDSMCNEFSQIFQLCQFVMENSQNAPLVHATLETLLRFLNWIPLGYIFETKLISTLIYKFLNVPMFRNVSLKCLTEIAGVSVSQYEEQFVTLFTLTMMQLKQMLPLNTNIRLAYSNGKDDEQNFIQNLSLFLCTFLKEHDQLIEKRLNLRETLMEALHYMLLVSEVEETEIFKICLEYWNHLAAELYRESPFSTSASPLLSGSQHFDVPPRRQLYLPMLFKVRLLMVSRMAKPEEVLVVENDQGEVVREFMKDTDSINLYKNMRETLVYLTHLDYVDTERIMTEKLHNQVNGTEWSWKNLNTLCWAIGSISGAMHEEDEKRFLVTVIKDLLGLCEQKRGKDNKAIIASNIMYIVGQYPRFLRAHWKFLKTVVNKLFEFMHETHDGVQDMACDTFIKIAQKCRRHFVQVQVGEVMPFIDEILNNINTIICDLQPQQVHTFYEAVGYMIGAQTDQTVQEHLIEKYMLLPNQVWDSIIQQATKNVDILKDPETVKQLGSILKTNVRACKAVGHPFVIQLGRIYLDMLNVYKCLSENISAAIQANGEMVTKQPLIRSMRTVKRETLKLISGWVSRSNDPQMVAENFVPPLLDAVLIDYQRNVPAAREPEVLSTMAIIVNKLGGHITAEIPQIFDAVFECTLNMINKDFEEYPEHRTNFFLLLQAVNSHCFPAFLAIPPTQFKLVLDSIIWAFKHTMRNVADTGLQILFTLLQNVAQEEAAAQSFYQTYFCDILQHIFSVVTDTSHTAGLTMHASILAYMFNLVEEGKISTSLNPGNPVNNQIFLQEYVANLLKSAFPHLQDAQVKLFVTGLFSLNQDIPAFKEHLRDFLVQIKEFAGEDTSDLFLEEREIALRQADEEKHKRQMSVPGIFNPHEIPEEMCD

Columns and labels:
[1] = molecular target: BRD4 (intron 10 mScarlet tag, HAP1) (UniProt O60885); assay: BRD4 median nuclear fluorescence intensity change vs DMSO (log2 fold change); higher = more BRD4 protein; details: 6 h
[2] = molecular target: XPO1 (intron 15 mScarlet tag, HAP1) (UniProt O14980); assay: XPO1 fluorescence intensity change vs DMSO (log2 fold change); higher = more XPO1 protein; details: 6 h

## CC(C)CN(C[C@@H](O)[C@H](Cc1ccccc1)NC(=O)O[C@H]1CCOC1)S(=O)(=O)c1ccc(N)cc1 [amprenavir] (10 µM)
[1]
  BRD4 median nuclear fluorescence intensity change (log2): 0.0923

## Cc1ccc(Cl)cc1N1CCN(C(=O)NCc2ccco2)CC1 (10 µM)
[2]
  XPO1 fluorescence intensity change (log2): 0.0505
[1]
  BRD4 median nuclear fluorescence intensity change (log2): 0.0513

## C#C[C@]1(O)CC[C@H]2[C@@H]3CCC4=CC(=O)CC[C@@H]4[C@H]3CC[C@@]21CC [levonorgestrel] (9.99976 µM)
[1]
  BRD4 median nuclear fluorescence intensity change (log2): 0.0645

## CCN(CC)C(=S)S [sodium diethyldithiocarbamate trihydrate] (10 µM)
[1]
  BRD4 median nuclear fluorescence intensity change (log2): -0.00699

## c1cnc2cc3c(cc2n1)[C@@H]1CNC[C@H]3C1 [varenicline] (10 µM)
[1]
  BRD4 median nuclear fluorescence intensity change (log2): 0.0704

## COc1c(C)c2c(c(O)c1C/C=C(\C)CCC(=O)O)C(=O)OC2 [mycophenolic acid] (10 µM)
[1]
  BRD4 median nuclear fluorescence intensity change (log2): -0.00152

## CCCc1nc(C(C)(C)O)c(C(=O)O)n1Cc1ccc(-c2ccccc2-c2nnn[nH]2)cc1 [olmesartan] (10 µM)
[1]
  BRD4 median nuclear fluorescence intensity change (log2): 0.0242

## CCCCCCCCCCCCCCCCCCOP(=O)([O-])OC1CC[N+](C)(C)CC1 [perifosine] (20 µM)
[1]
  BRD4 median nuclear fluorescence intensity change (log2): 0.117

## CC[N+](C)(C)Cc1ccccc1Br [bretylium tosylate] (17 µM)
[1]
  BRD4 median nuclear fluorescence intensity change (log2): 0.0379

## CCCc1nn(C)c2c(=O)[nH]c(-c3cc(S(=O)(=O)N4CCN(C)CC4)ccc3OCC)nc12 [sildenafil] (9.999439551 µM)
[1]
  BRD4 median nuclear fluorescence intensity change (log2): 0.00568

## CNNCc1ccc(C(=O)NC(C)C)cc1 [procarbazine] (20 µM)
[1]
  BRD4 median nuclear fluorescence intensity change (log2): 0.122

## CCCCCCCN(CC)CCCC(O)c1ccc(NS(C)(=O)=O)cc1 (stereo unspecified) [ibutilide] (10.00092008 µM)
[1]
  BRD4 median nuclear fluorescence intensity change (log2): 0.209

## CCCCNc1cc(C(=O)O)cc(S(N)(=O)=O)c1Oc1ccccc1 [bumetanide] (10.00031521 µM)
[1]
  BRD4 median nuclear fluorescence intensity change (log2): 0.0188

## CO[C@H]1/C=C/O[C@@]2(C)Oc3c(C)c(O)c4c(c3C2=O)C2=NC3(CCN(CC(C)C)CC3)NC2=C(NC(=O)/C(C)=C\C=C\[C@H](C)[C@H](O)[C@@H](C)[C@@H](O)[C@@H](C)[C@H](OC(C)=O)[C@@H]1C)C4=O [rifabutin] (9.99925 µM)
[1]
  BRD4 median nuclear fluorescence intensity change (log2): 0.144

## CCNC(=O)[C@@H]1CCCN1C(=O)[C@H](CCCNC(=N)N)NC(=O)[C@H](CC(C)C)NC(=O)[C@@H](CC(C)C)NC(=O)[C@H](Cc1ccc(O)cc1)NC(=O)[C@H](CO)NC(=O)[C@H](Cc1c[nH]c2ccccc12)NC(=O)[C@H](Cc1c[nH]cn1)NC(=O)[C@@H]1CCC(=O)N1 [leuprolide] (20 µM)
[1]
  BRD4 median nuclear fluorescence intensity change (log2): -0.0111
